Measurements published in patent US20120115830A1.
No constants are given. Whether binding was seen depends on the method and setting. Some binding calls cover weakened binding; strength is not graded here.

Protein sequences, listed by entry. Tags and fused reporters are not part of them.
UniProt Q9BYM8: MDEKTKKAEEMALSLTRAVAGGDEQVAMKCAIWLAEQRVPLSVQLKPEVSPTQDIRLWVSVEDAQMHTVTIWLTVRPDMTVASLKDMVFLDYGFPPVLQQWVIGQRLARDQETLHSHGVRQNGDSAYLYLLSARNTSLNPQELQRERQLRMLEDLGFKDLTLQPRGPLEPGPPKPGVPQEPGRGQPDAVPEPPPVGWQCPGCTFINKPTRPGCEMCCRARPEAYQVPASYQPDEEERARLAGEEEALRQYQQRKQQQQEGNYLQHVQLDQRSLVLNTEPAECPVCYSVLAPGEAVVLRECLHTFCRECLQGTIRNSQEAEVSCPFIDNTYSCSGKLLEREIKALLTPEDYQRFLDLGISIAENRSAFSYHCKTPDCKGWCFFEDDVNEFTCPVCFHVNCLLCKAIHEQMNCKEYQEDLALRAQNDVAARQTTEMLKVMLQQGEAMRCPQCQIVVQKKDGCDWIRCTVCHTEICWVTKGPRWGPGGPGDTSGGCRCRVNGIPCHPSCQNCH

Legend:
[1] = molecular target: XAP3 cloned in-frame into pACT plasmid (UniProt Q9BYM8); experiment: mammalian two-hybrid (FIG. 2c-d)
[2] = molecular target: T1, USP19 cloned in-frame into pACT plasmid (UniProt O94966); experiment: mammalian two-hybrid (FIG. 2c-d)
T1 sequence (looked up): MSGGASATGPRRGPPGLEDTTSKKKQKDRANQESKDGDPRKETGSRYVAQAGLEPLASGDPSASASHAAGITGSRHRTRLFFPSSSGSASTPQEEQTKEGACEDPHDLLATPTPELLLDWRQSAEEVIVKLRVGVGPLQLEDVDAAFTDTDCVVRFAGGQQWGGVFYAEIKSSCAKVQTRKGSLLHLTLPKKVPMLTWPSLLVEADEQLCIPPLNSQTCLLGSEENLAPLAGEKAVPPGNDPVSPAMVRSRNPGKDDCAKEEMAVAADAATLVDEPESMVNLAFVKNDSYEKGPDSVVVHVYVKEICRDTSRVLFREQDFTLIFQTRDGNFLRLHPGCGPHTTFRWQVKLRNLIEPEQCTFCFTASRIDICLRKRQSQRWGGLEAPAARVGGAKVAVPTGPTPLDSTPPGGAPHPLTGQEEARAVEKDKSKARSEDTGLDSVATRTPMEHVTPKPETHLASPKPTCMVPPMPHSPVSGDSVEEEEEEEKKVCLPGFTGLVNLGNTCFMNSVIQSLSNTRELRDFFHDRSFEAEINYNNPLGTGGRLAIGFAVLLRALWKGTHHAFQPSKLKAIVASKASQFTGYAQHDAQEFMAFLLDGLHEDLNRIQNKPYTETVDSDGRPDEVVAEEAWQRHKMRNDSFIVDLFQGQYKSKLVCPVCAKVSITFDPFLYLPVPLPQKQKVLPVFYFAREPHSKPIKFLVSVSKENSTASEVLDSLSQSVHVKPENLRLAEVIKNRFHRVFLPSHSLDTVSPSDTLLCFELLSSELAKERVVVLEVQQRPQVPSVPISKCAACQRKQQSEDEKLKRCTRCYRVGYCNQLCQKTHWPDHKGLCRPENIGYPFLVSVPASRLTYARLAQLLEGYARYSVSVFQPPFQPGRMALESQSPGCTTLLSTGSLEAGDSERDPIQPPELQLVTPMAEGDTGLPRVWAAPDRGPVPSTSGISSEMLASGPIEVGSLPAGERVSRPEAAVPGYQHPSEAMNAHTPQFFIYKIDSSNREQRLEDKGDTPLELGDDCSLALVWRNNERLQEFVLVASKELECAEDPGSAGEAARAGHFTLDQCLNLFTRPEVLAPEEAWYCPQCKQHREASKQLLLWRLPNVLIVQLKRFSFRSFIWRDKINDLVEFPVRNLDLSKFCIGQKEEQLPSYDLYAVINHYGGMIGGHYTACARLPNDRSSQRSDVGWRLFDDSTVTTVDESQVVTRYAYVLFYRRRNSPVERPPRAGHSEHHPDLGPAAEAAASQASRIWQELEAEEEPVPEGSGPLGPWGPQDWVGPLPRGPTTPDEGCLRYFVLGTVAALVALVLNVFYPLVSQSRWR

[3] = molecular target: XAP3 cloned in-frame into pACT plasmid (UniProt Q9BYM8); experiment: mammalian two-hybrid in L132 cells
[4] = molecular target: T1, USP19 cloned in-frame into pACT plasmid; experiment: mammalian two-hybrid in L132 cells

Measured: binding

B1: Full length FKBPL cloned in-frame into pBIND plasmid (protein, not shown: large carriers)
chain: METPPVNTIGEKDTSQPQQEWEKNLRENLDSVIQIRQQPRDPPTETLELEVSPDPASQILEHTQGAEKLVAELEGDSHKSHGSTSQMPEALQASDLWYCPDGSFVKKIVIRGHGLDKPKLGSCCRVLALGFPFGSGPPEGWTELTMGVGPWREETWGELIEKCLESMCQGEEAELQLPGHSGPPVRLTLASFTQGRDSWELETSEKEALAREERARGTELFRAGNPEGAARCYGRALRLLLTLPPPGPPERTVLHANLAACQLLLGQPQLAAQSCDRVLEREPGHLKALYRRGVAQAALGNLEKATADLKKVLAIDPKNRAAQEELGKVVIQGKNQDAGLAQGLRKMFG
binds: all assays above
